Data published in paper PMC4964976.
These are yes or no findings as the source states them, for the method shown. Some entries that bind do so weakly or less than the wild type.

Biological target: T1, pyocin S2 immunity protein (P. aeruginosa (strain not stated)) (UniProt Q06579)
T1 sequence: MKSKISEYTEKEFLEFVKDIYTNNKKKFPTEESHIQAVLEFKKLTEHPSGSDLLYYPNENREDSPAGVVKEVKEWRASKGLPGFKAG
Assay: co-purification (nickel affinity + size exclusion chromatography); pyocin and immunity protein co-expressed in E. coli BL21(DE3)pLysS, His6 tag on the immunity protein only; HisTrap in 20 mM Tris/HCl, 500 mM NaCl, pH 7.5, 20-500 mM imidazole gradient, then Superdex S200 or S75 in 50 mM Tris/HCl, 200 mM NaCl, pH 7.5

pyocin S2Δ17 (from UniProt Q06584 18-689) (domain or fragment)
binding: binds
